Measured values published in PubChem BioAssay AID2517 (National Center for Advancing Translational Sciences (NCATS), 2010).
“And” between values parts separate entries of the source, which are not always exact repeats. Equal entries are not always repeated. The campaign covered roughly 350,000 compounds. About 1,200 (0.34%) were called active. Inconclusive means that the source gave no clear call. Such entries were picked first, then a sample of the others. The call rests on the fitted dose curve; in most records, active means well fitted inhibition curve with a large enough effect; inconclusive means small, poorly fitted or top-dose-only effect; inactive means no such curve, though single readings can be large or run the other way. Potencies of inconclusive entries are doubtful fits and often do not repeat. Residues, ends and D or L forms follow the SMILES beside them. *: point of attachment. CH2Cl = ClC*

The chains behind the UniProt entries cited, without tags or fusion partners.
UniProt P27695, whole entry, looked up: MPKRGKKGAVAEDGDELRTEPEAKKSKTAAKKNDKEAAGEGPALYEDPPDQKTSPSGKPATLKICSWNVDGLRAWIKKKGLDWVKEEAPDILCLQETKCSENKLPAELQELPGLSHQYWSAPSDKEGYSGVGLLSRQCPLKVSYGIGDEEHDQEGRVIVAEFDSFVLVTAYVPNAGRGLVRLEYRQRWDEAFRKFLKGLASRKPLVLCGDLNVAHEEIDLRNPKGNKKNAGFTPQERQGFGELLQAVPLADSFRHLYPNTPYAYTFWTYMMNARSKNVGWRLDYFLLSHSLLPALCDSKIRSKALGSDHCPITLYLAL

target: DNA repair nuclease/redox regulator APEX1 (Homo sapiens) (UniProt P27695); assay: qHTS Assay for Inhibitors of the Human Apurinic/apyrimidinic Endonuclease 1 (APE1); conditions: recombinant APE1, TAMRA/BHQ-2 abasic DNA cleavage fluorescence; activity change, negative = inhibition: at 65.8 µM (top of the series); further: nearly all actives have a fitted effect of over 55% in size;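 on activity change, negative = inhibition: plate controls were vehicle for no effect and reference inhibitor for full effect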
Method in brief: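 Activity was derived from the fluorescence gain between first and third kinetic reads (60 s intervals, ex 525/em 598 nm) after 50 nM THF-abasic TAMRA/BHQ-2 duplex was added to 0.75 nM APE1 preincubated 15 min with compound.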
Potency means the concentration at half of the fitted maximal effect.

Row | SMILES | Potency | activity change, negative = inhibition
1 | CCOc1ccccc1-n1c(O)c(C=Nc2c(C)n(C)n(-c3ccccc3)c2=O)c(=O)[nH]c1=O | inconclusive: 1.78 µM [inhibitor, full curve, poor fit] | 
2 | O=C=NCCCCN=C=O | inconclusive: 7.08 µM [inhibitor, single point] | 
3 | N#CC(C#N)=Cc1cc(O)c(O)c(O)c1 | inconclusive: 28.2 µM [inhibitor, partial curve, poor fit] | 
4 | CC[C@@]1(O)CC(O)c2c(cc3c(c2O)C(=O)c2c(O)ccc(O)c2C3=O)C1C(=O)OC (stereo not given in full) | inconclusive: 7.08 µM [inhibitor, partial curve] | 
5 | O=C1C2C3CCC(O3)C2C(=O)N1CCO (stereo not given) | inactive | 
6 | Cc1cn([C@H]2C[C@H](O)[C@@H](CO)O2)c(=O)[nH]c1=O | inactive and inconclusive: 8.91 µM [inhibitor, single point] | 
7 | COc1cccc(-n2c(=S)[nH]c3ccccc3c2=O)c1 | inconclusive: 44.7 µM [inhibitor, single point] | 
8 | CN1CCC(N(C)c2ncnc3ccc(Br)cc23)CC1 | inactive | 
9 | O=C(Cl)OCc1ccccc1 | inactive | 
10 | COc1ccc(C(=O)C23CN4CN(CN(C4)C2)C3)cc1 | inconclusive: 44.7 µM [inhibitor, single point] | 
11 | O=c1[nH]c(=O)n([C@H]2C[C@H](O)[C@@H](CO)O2)cc1/C=C/Br | inactive | 
12 | CCC(C)NC(=O)c1c(N)n(CCCOC)c2nc3ccccc3nc12 (stereo not given) | inactive | 
13 | COP(=O)(Cc1ccc(C#N)o1)OC | inconclusive: 3.55 µM [inhibitor, single point] | 
14 | CCCC(Cn1cncn1)c1ccc(Cl)cc1Cl (stereo not given) | inactive | 
15 | Nc1ccc(C2(c3ccc(N)cc3)CCCCC2)cc1 | inconclusive: 7.94 µM [inhibitor, single point] | 
16 | COc1cccc([C@@]2(O)CCCCC2CN(C)C)c1 (stereo not given in full) | inactive | 
17 | CN1CCc2nc(SCc3ccccc3Br)c(C#N)cc2C1 | inconclusive: 44.7 µM [inhibitor, single point] | 
18 | Cc1nc2ccccc2c(=O)n1-c1ccc(Cl)cc1Cl | inconclusive: 23.8 µM [inhibitor, single point] | 
19 | O=C(O)c1cc(O)c(O)c(O)c1 | inconclusive: 31.6 µM [inhibitor, single point] and inconclusive: 631 nM [inhibitor, full curve] | 
20 | CC1O[C@@H](Oc2c(-c3ccc(O)c(O)c3)oc3cc(O)cc(O)c3c2=O)C(O)C(O)C1O (stereo not given in full) | inconclusive: 14.1 µM [inhibitor, partial curve] | 
21 | CC(C)c1ccccc1 | inconclusive: 35.5 µM [inhibitor, single point] | 
22 | CC(C)CON=O | inactive | 
23 | COc1ccccc1CCNCc1ccc(OC)c(OC)c1OC | inactive | 
24 | O=C(c1cc(-c2ccc(Cl)cc2)n(-c2ccc(Cl)cc2Cl)n1)N1CCOCC1 | inconclusive: 2 µM [inhibitor, partial curve, poor fit] | 
25 | COc1ccc(C(=O)N/N=C/C23CC[C@@H](O)CC2(O)CC[C@@H]2[C@@H]3CCC3(C)C(C4=CC(=O)OC4)CCC23O)cc1 (stereo not given in full) | inconclusive: 28.2 µM [inhibitor, single point] | 

Entries above that contain nitrogen in an aromatic ring, in the order listed:
Row | SMILES | Potency | activity change, negative = inhibition
1 | CCOc1ccccc1-n1c(O)c(C=Nc2c(C)n(C)n(-c3ccccc3)c2=O)c(=O)[nH]c1=O | inconclusive: 1.78 µM [inhibitor, full curve, poor fit] | 
6 | Cc1cn([C@H]2C[C@H](O)[C@@H](CO)O2)c(=O)[nH]c1=O | inactive and inconclusive: 8.91 µM [inhibitor, single point] | 
7 | COc1cccc(-n2c(=S)[nH]c3ccccc3c2=O)c1 | inconclusive: 44.7 µM [inhibitor, single point] | 
8 | CN1CCC(N(C)c2ncnc3ccc(Br)cc23)CC1 | inactive | 
11 | O=c1[nH]c(=O)n([C@H]2C[C@H](O)[C@@H](CO)O2)cc1/C=C/Br | inactive | 
12 | CCC(C)NC(=O)c1c(N)n(CCCOC)c2nc3ccccc3nc12 (stereo not given) | inactive | 
14 | CCCC(Cn1cncn1)c1ccc(Cl)cc1Cl (stereo not given) | inactive | 
17 | CN1CCc2nc(SCc3ccccc3Br)c(C#N)cc2C1 | inconclusive: 44.7 µM [inhibitor, single point] | 
18 | Cc1nc2ccccc2c(=O)n1-c1ccc(Cl)cc1Cl | inconclusive: 23.8 µM [inhibitor, single point] | 
24 | O=C(c1cc(-c2ccc(Cl)cc2)n(-c2ccc(Cl)cc2Cl)n1)N1CCOCC1 | inconclusive: 2 µM [inhibitor, partial curve, poor fit] | 

(further entries)

Row | SMILES | Potency | activity change, negative = inhibition
26 | CCCN1CCC[C@@H]2Cc3n[nH]cc3C[C@H]21 | inactive | 
27 | NC[C@H](CP(=O)(O)O)c1ccc(Cl)cc1 | inconclusive: 39.8 µM [inhibitor, single point] | 
28 | O=c1c2ccccc2nc(-c2ccccc2F)n1-c1ccccc1 | inactive | 
29 | CCN1C[C@]2(C)CC[C@H](OC)[C@@]34[C@H]1C1(OCO[C@@]15C[C@H](OC)C1C[C@]3(O)C5[C@H]1OC)[C@@H](O)[C@H]24 | inactive | 
30 | COc1cc2c(cc1O)[C@H]1Cc3ccc(OC)c(O)c3CN1CC2 | inactive | 
31 | O=C(CCl)Nc1nccs1 | inactive | 
32 | Cc1ncsc1CCCl | inconclusive: 44.7 µM [inhibitor, single point] | 
33 | CC(=O)OC1C2CCCC1C(N1CCCC1)CC2 (stereo not given) | inconclusive: 7.08 µM [inhibitor, single point] | 
34 | Cc1cccnc1-n1c(CN2C(=O)c3ccccc3C2=O)nc2ccccc2c1=O | inconclusive: 50.1 µM [inhibitor, partial curve, poor fit] | 
35 | O=C1NO[C@H]2[C@@H]1CN[C@@H]2C(=O)O | inconclusive: 39.8 µM [inhibitor, single point] | 
36 | CCCCOCC1CO1 (stereo not given) | inactive | 
37 | Cc1ccccc1-c1cncnc1NCCc1cnc[nH]1 | inactive | 
38 | COCCN1C(=O)NC(=O)/C(=C\c2ccc(F)cc2)C1=O | inconclusive: 44.7 µM [inhibitor, single point] | 
39 | O=c1c2ccccc2nc(/C=C/c2ccc3c(c2)OCO3)n1-c1ccccc1 | inconclusive: 10 µM [inhibitor, single point] | 
40 | Cn1c(O)c(/C=N/NC(=O)c2ccncc2)c(=O)[nH]c1=S | inconclusive: 3.98 µM [inhibitor, single point] | 
41 | O=C1NC(=O)C(=Cc2ccc(N3CCOCC3)o2)C(=O)N1 | inactive | 
42 | Oc1ccc(Cl)c(Cl)c1Cl |  | inconclusive: 13.4% [inhibitor]
43 | COc1cc2ccc(=O)oc2c2ccoc12 | inconclusive: 3.98 µM [inhibitor, single point] | 
44 | N#CSCSC#N | inconclusive: 39.8 µM [inhibitor, partial curve, poor fit] | 
45 | CN(C(=O)Cc1ccc(Cl)c(Cl)c1)[C@H](CN1CCCC1)c1cccc(N=C=S)c1 | inactive | 
46 | COC[C@H]1OC(=O)c2coc3c2[C@@]1(C)C1=C(C3=O)C2CCC(=O)[C@@]2(C)C[C@H]1OC(C)=O (stereo not given in full) | inactive and inconclusive: 44.7 µM [inhibitor, single point] | 
47 | COc1cc2c(c(OC)c1OC)-c1ccc(O)c(=O)cc1C(NC(C)=O)CC2 (stereo not given) | inconclusive: 0.0016 µM [inhibitor, full curve, poor fit] | 
48 | CCCCC/C=C\C/C=C\C/C=C\C/C=C\CCCC(=O)OCCN | inactive | 
49 | C[C@H](N)C(=O)N[C@@H](C)C(=O)N[C@@H](Cc1ccccc1)C(=O)CCl (H-Ala-Ala-Phe-CH2Cl) | inconclusive: 17.8 µM [inhibitor, partial curve] | 
50 | CC(C)(O)[C@@H]1[C@H]2OC(=O)[C@@H]1[C@]1(O)C[C@H]3O[C@]34C(=O)O[C@H]2[C@]14C | inactive | 

Some of the entries so far, in CSV form.
Row,SMILES,Potency,"activity change, negative = inhibition"
22,CC(C)CON=O,inactive,
23,COc1ccccc1CCNCc1ccc(OC)c(OC)c1OC,inactive,

(list continues)

Row | SMILES | Potency | activity change, negative = inhibition
51 | Cn1nnc(CC[N+](C)(C)C)n1 | inconclusive: 35.5 µM [inhibitor, single point] | 
52 | CCN(CC)c1ccc(/C=C2\C(=O)NC(=O)N(CC3CCCO3)C2=O)cc1 (stereo not given) | inactive | 
53 | COc1ccc(CNCCc2c[nH]c3ccccc23)c(OC)c1OC | inactive | 
54 | CC(c1ccccc1)n1cncc1C(=O)O (stereo not given) | inconclusive: 31.6 µM [inhibitor, single point] | 
55 | CN1CCC2(CC1)NC(=O)c1ccccc1N2 | inconclusive: 44.7 µM [inhibitor, single point] | 
56 | CCOC(=O)c1[nH]c(=O)c2ccccc2c1O | inconclusive: 44.7 µM [inhibitor, single point] | 
57 | CCC12CCN(CCc3ccc(F)cc3)CC1Oc1c(O)cccc12 (stereo not given) | inactive | 
58 | O=C(O)/C=C/C(=O)O | inconclusive: 39.8 µM [inhibitor, single point] | 
59 | CC[C@@H](CO)NC(=O)[C@@H]1C=C2c3cccc4[nH]cc(c34)C[C@H]2N(C)C1 | inconclusive: 35.5 µM [inhibitor, single point] | 
60 | CN1CCN2c3ccc(N)cc3CC3(C(=O)NC(=O)NC3=O)C2C1 (stereo not given) | inconclusive: 39.8 µM [inhibitor, single point] | 
61 | N#CC(C#N)=Cc1cc(O)c(O)c([N+](=O)[O-])c1 | active: 5.62 µM | 
62 | C[n+]1ccc(-c2ccncc2)cc1 | inactive | 
63 | CCOC(=O)c1c(C)n(C(C)C)c2ccc(OC(=O)c3ccc(N4C(=O)CCC4=O)cc3)cc12 | inconclusive: 31.6 µM [inhibitor, partial curve, poor fit] | 
64 | Cc1ccccc1CN1CCNCC1 | inactive | 
65 | CCN(CC)c1ccc(/C=C2/C(=O)NC(=O)N(Cc3ccco3)C2=O)cc1 | inconclusive: 39.8 µM [inhibitor, single point] | 
66 | CCCCN1C(=O)/C(=C/C=C/c2ccco2)C(=O)NC1=S | active: 31.6 µM | 
67 | CCn1nc(-c2ccccc2)nc2c(=O)n(C)c(=O)nc1-2 | inconclusive: 2.82 µM [inhibitor, single point] | 
68 | CC(C)(C)c1cc(C=C(C#N)C#N)cc(C(C)(C)C)c1O | inconclusive: 5.01 µM [inhibitor, full curve, poor fit] | 
69 | CCCCC/C=C\C/C=C\C/C=C\C/C=C\CCCC(=O)NCCc1ccc(O)c(O)c1 | inconclusive: 35.5 µM [inhibitor, single point] | 
70 | NCC(N)C(=O)c1ccccc1 (stereo not given) | inactive | 
71 | Clc1ccc(COC(Cn2ccnc2)c2ccc(Cl)cc2Cl)c(Cl)c1 (stereo not given) | inconclusive: 44.7 µM [inhibitor, single point] | 
72 | CCN(CC)P(=O)(NC(=O)C(Cl)(Cl)Cl)N(CC)CC.[Cl-].[Cl-].[Cl-].[Nd+3] | inconclusive: 7.94 µM [inhibitor, partial curve] | 
73 | Nc1ccccc1C(=O)OCCc1ccccc1 | inconclusive: 20 µM [inhibitor, full curve, poor fit] | 
74 | CCCCCn1c(=O)c(C(=O)NC(C)c2ccccc2)c(O)c2ccccc21 (stereo not given) | inconclusive: 23.8 µM [inhibitor, single point] | 
75 | O=C(OCC1O[C@@H](OC(=O)c2cc(O)c(O)c(O)c2)[C@@H](OC(=O)c2cc(O)c(O)c(O)c2)[C@@H](OC(=O)c2cc(O)c(O)c(O)c2)[C@@H]1OC(=O)c1cc(O)c(O)c(O)c1)c1cc(O)c(O)c(O)c1 (stereo not given in full) | active: 0.0112 µM | 
